As usually defined, the Kd is the equilibrium constant for the complex coming apart. Read a low Kd as tighter binding.

This passage reports Kd results from publication PMC11488661 (2024).

What all share (assay): SPR; geometric mean of post-prime mAbs
For assay [1], the target named is post-prime CLK19-lineage mAbs.
The target of assay [2] is post-prime CLK21-lineage mAbs.
In assay [3] the target is post-prime CLK09-lineage mAbs.

B1: eOD-GT8 (monomeric ligand) (other)
chain: DTITLPCRPAPPPHCSSNITGLILTRQGGYSNANTVIFRPSGGDWRDIARCQIAGTVVSTQLFLNGSLAEEEVVIRSEDWRDNAKSICVQLATSVEIACTGAGHCAISRAKWANTLKQIASKLREQYGAKTIIFKPSSGGDPEFVNHSFNCGGEFFYCASTQLFASTWFASTGTGTK
For the molecule B1, the figures for the Kd in assay [1], in assay [2] and in assay [3] were 2 nM, 2.8 nM and 8.6 nM, respectively.
